Experimental data: patent publication US5470948 (dated 1995)
Some peptides are written in HELM: one residue between dots, names in brackets for other building blocks, links after the first $.

Test: general procedure: Boc solid-phase peptide synthesis; Merrifield resin (<MF>)
Settings: for crude mass / crude yield: whole synthesis; for crude yield: relative to heptapeptide resin used, scale of the general procedure 0.8 g (about 0.4 mmol) heptapeptide resin; for oxidative folding yield: oxidative folding step, relative to fully protected nonapeptide amide

Row | Substance | crude mass [g] | crude yield [%] | oxidative folding yield [%]
1 | Mca(Bzl)-DTyr(Et)-Phe-Gln-Asn-Cys(Bzl)-Sar-Arg(Tos)-Gly-NH2 | 0.35 | 60 | 
2 | Mca(Bzl)-DTyr(MeOBzl)-Phe-Gln-Asn-Cys(Bzl)-Sar-Arg(Tos)-Gly-NH2 | 0.35 | 55 | 
3 | [Mca^1, D-Tyr^2, Sar^7 ]AVP |  |  | 61
4 | PEPTIDE1{[Mca].[D-Tyr(Et)].F.Q.N.C.[Sar].R.G.[am]}$PEPTIDE1,PEPTIDE1,1:R3-6:R3$$$V2.0 |  |  | 33
